Test results from article PMC10163288.
The list shows a part of the results.

B1: il2ra_site2_2erj_normal_mot_8a316d4779eb53efc793250774d75e68_0001_af2_000000043_0001_18_32_H_._HHH_b1_05331_0001_0000500005_0000001_0_af2pred_0001_1_af2pred_swa … (protein)
chain: SSSSDEEEKLKELLEIVERLLKEGDPERAILRVIEAILLAQEANDEEIAEELHKLLQESRSSSSS
B2: il2ra_site1_2b5i_normal_mot_22370d59370c406a0c205a431f537cfa_0001_af2_000000141_0001_1_31_H_._HHH_b2_03163_af2_0001_0000300029_0000001_0_af2pred_0001_af2pred (protein)
chain: SSSDHELVRFAVRVVLRLARELGLSREQIKRLHEIAVRLVDNGFSEEEIEEILREEAEELKSSSS
B3: il2ra_site1_3nfp_normal_mot_HHH_b1_02781_000000044_0001_39_52_H_._HHH_b2_02059_0001_0000100002_0000001_0_af2pred_0001_af2pred (protein)
chain: SSSSSSEEEEERVRELLERARKIEDWREAEELFEEALKIAARLKDPELLRLVLEFAREYSSSSSS
B4: il2ra_site1_3nfp_sap_12_mot_HHH_b1_07180_af2_000000260_0001_1_19_H_._HHH_b2_08228_0001_0000700033_0000001_0_0001 (protein)
chain: DAVERFIKKAEELDPRFKELLEELLELAHEHPQDDELAHALLHVVALIDNGNPEEAEKAAEEILK
B5: il2ra_site1_3nfp_normal_mot_0eddeacbb14b769e73e254714f31e2f9_0001_af2_000000052_0001_37_51_H_._HHH_b2_00297_af2_0001_0000100007_0000001_0 (protein)
chain: SSSSNEEADRLYELMKELIELAKEGNEEEAKEVAEELLKLAEERNDPNVEKAARLLLELLSSSSS
B6: il2ra_site2_2erj_normal_mot_HHH_b1_03990_af2_000000075_0001_19_35_H_._ems_p1-16H-GBL-16H-GABBL-16H_0048_0001_0001_0001_0001_0000100002_0000001_0_af2pred_0001_1_ … (protein)
chain: SSSSDEVVRLAARVSLIAREKGDEEAFLKASEILARFLKGILSEEEASKLLEELLKEAESSSSSS
B7: il2ra_site1_3nfp_sap_17_mot_86920ccf215a9397388743310839e631_0001_1_000000296_0001_18_34_H_._HHH_b1_08366_0001_0000400016_0000001_0_0001 (protein)
chain: SSSSDELERVVEELVKELGLTRVAKRALEEAVEMLKKMGISEEEAERALEDAARMFARIQSSSSS
B8: il2ra_site2_2erj_sap_21_mot_2e60acbd11533cd3bad2fa8ba2aa37e0_0001_af2_000000288_0001_35_49_H_._HHH_b1_03230_0001_0000300009_0000001_0_0001 (protein)
chain: SSSSSEEVEELIEQVEELLKKGDVEEAERVLRRAAHIAFEDGDEELFSKLAELTRAVAHAESSSS
B9: il2ra_site2_3nfp_sap_14_mot_HHH_b1_00660_af2_000000090_0001_40_57_H_._HHH_b2_00227_0001_0000400023_0000001_0_0001 (protein)
chain: SSSSDDAEEYIRAALALVELALEEGDPEIARKILEMARMAAEDNNNEELEEEVERLEELLSSSSS
B10: il2ra_site2_3nfp_normal_mot_HHH_b2_06150_000000217_0001_39_53_H_._HHH_b2_03460_af2_0001_0001000032_0000001_0 (protein)
chain: SSSSDVEERVRELLEEAEELFKEGDEEEAREILAEATRLAYEARDSELFFEVAEVLYRLASSSSS
B11: il2ra_site1_1z92_normal_mot_73a3237f21306322153cb43486d2ff88_0001_1_af2_000000006_0001_34_49_H_._66959ead3e6c57cb3ef8243f3eb758e0_0001_1_0001_0000300041_0000001 … (protein)
chain: NEAEEDLREAVEKNDEEELRKFIELLLRDAGDPKLVKQLLKILVKRLGLPPEVLERLEELLEELT
B12: il2ra_site1_1z92_normal_mot_HHH_b1_00893_000000159_0001_19_35_H_._3c0bf5cfbbd8e8a5fc1cbabefe5f89f2_0001_0001_0000100017_0000001_0_af2pred_0001_af2pred_1_swapped (protein)
chain: DRAERFLREQLERKLRKDVEAAARLLLKMAKANRDPELEEEAEKALELVKRDPEEAERLIRELLK
B13: il2ra_site1_2b5i_normal_mot_HHH_b2_08121_af2_000000082_0001_40_52_H_._HHH_b2_06152_0001_0000300013_0000001_1_af2pred_dldesign_0_af2pred (protein)
chain: SSSSSDLRAFADRTVDELKERLGLSEGARRQLRRFADLAVEQGVDEETLRKEVEAFARRASSSSS
B14: il2ra_site2_3nfp_normal_mot_HHH_b2_03978_000000149_0001_1_20_H_._HHH_b2_02394_0001_0000100002_0000001_0 (protein)
chain: SSSSDTEEEAEELLREAKELLERGNPEEALEILSRAAALAYRSGDHELFAKISEVMHELNSSSSS
B15: il2ra_site1_1z92_normal_mot_b1fbee8209167eaadba3689d49187f1a_0001_1_af2_000000018_0001_16_31_H_._0e4f66a3c4b070984708d3e1d5382b02_0001_1_0001_0000100003_0000001 … (protein)
chain: TNAEETFELARELGIPPEKVVRAIVSAVRRHDPRLREEAEELLEQVERGELPPEEAVKLLLELAE
B16: il2ra_site2_2erj_sap_19_mot_c2dd1dc352432ff47dded349a4d391fc_0001_1_000000244_0001_1_14_H_._HHH_b2_02787_0001_0000600019_0000001_0_0001 (protein)
chain: SSSSSAREASERVSELLAEANEVDDPEEFEELLREAERLAEEANNPFLERYIEYSRRDFHSSSSS
B17: il2ra_site1_2b5i_normal_mot_f5ff40796168375b462bec8614a1db4a_0001_1_000000138_0001_53_65_H_._HHH_b1_01883_0001_0000600017_0000001_0_af2pred_dldesign_0_af2pred (protein)
chain: SSSSSIRELVEELIEEAKRLKKEGKEDLVKKLLLLARRLAERAKDPELVAKVEEVEKEVESSSSS
B18: il2ra_site1_2b5i_sap_8_mot_HHH_b1_06844_000000212_0001_1_18_H_._HHH_b2_04608_af2_0001_0000600036_0000001_0_0001_af2pred_dldesign_0_af2pred (protein)
chain: SSSSSSFKEALLEAERLYKEAEKVDKETQKEILARVKELYEKYKDPAIAAAVEEIEELLKSSSSS
B19: il2ra_site1_1z92_sap_24_mot_HHH_b1_07866_af2_000000238_0001_1_18_H_._HHH_b1_02195_af2_0001_0000700010_0000001_0_0001_af2pred_0001_af2pred_1 (protein)
chain: DLEELLEKVLELLEQGNVEEARKLLEEILKELEERGDPLAYAFEALLKLLKKDEESAEKFVRKLL

target: il2ra, P01589; assay: yeast display titration

Apparent Kd, inactive:
B1 no binding seen
B2 no binding seen
B3 no binding seen
B4 no binding seen
B5 no binding seen
B6 no binding seen
B7 no binding seen
B8 no binding seen
B9 no binding seen
B10 no binding seen
B11 no binding seen
B12 no binding seen
B13 no binding seen
B14 no binding seen
B15 > 1240 nM
B16 > 1110 nM
B17 no binding seen
B18 no binding seen
B19 no binding seen

Pulled one by one from the entries so far:
Apparent Kd, inactive:
B16 > 1110 nM
B15 > 1240 nM
